The text below walks through data of patent publication US20060171884A1 (Amgen, published 2006).

These are yes or no findings as the source states them, for the method shown. Some binding calls cover weakened binding; strength is not graded here.

The target of assay [1] is T1, Matriptase (soluble enzyme, form not stated) (human) (UniProt Q9Y5Y6).
T1 sequence: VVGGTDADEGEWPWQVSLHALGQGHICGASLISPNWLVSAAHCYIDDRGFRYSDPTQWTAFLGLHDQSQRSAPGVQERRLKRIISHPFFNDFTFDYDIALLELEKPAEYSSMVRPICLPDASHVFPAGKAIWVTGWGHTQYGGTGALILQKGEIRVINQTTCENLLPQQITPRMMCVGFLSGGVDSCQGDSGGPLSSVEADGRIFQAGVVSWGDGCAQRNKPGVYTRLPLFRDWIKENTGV
Briefly: competition ELISA, HAI-1 titrated from 2 µg/ml against biotinylated MT-SP1, capture on sc95/96-coated plate. (An ELISA detects its analyte on a solid surface through an enzyme-linked reagent.)

The target in assay [2] is T1, Matriptase (soluble enzyme, form not stated) (human). Briefly: competition ELISA: 125 ng/ml biotinylated MTSP1 pre-incubated 1 hour with titrated HAI-1, then transferred to a sc95/96 coated plate, bound MTSP detected with SA-pod; competitor: plate-coated sc95/96.

B1: HAI-1 (soluble, as titrated in the competition assay) (other, UniProt O43278 36-465, looked up)
chain: GPPPAPPGLPAGADCLNSFTAGVPGFVLDTNASVSNGATFLESPTVRRGWDCVRACCTTQNCNLALVELQPDRGEDAIAACFLINCLYEQNFVCKFAPREGFINYLTREVYRSYRQLRTQGFGGSGIPKAWAGIDLKVQPQEPLVLKDVENTDWRLLRGDTDVRVERKDPNQVELWGLKEGTYLFQLTVTSSDHPEDTANVTVTVLSTKQTEDYCLASNKVGRCRGSFPRWYYDPTEQICKSFVYGGCLGNKNNYLREEECILACRGVQGGPLRGSSGAQATFPQGPSMERRHPVCSGTCQPTQFRCSNGCCIDSFLECDDTPNCPDASDEAACEKYTSGFDELQRIHFPSDKGHCVDLPDTGLCKESIPRWYYNPFSEHCARFTYGGCYGNKNNFEEEQQCLESCRGISKKDVFGLRREIPIPSTGSVE
As for B1, the binding result in assay [1] and in assay [2] was “binds” throughout.
